Results: paper doi:10.1101/2023.09.17.558147

Chains of the proteins cited; added tags and fusions are not shown.
UniProt P51979: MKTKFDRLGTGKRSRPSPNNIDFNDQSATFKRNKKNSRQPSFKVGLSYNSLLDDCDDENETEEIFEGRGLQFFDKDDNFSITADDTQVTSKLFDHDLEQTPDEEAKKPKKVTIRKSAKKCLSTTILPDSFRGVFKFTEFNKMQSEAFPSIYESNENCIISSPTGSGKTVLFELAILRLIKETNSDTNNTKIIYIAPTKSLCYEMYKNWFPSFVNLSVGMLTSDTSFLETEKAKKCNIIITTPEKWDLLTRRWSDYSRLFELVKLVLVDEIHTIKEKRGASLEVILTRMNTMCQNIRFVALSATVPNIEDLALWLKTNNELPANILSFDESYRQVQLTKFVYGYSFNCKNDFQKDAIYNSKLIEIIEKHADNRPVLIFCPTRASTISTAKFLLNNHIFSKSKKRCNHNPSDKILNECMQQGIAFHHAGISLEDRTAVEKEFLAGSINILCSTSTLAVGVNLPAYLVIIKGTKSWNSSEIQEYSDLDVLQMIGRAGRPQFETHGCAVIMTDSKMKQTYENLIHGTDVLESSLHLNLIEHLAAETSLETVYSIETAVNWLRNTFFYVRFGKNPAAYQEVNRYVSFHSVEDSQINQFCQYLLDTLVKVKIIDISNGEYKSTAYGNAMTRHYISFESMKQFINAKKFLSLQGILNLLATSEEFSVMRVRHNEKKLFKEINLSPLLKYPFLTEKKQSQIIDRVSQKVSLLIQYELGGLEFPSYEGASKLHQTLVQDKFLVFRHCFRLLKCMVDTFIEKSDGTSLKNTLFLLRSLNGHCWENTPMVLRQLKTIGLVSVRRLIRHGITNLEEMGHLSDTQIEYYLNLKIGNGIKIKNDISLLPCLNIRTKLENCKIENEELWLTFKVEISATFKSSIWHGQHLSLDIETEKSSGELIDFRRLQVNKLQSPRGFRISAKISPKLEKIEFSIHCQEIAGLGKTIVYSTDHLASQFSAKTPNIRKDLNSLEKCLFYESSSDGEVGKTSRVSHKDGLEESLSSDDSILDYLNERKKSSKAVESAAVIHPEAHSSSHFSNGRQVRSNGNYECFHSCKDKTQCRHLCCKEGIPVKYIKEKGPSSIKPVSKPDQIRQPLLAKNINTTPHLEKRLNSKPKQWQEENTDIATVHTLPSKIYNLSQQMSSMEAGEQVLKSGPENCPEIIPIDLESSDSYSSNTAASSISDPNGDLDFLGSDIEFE

T1: Mlh3-TurboID (S. cerevisiae) (UniProt Q12083)
T1 sequence: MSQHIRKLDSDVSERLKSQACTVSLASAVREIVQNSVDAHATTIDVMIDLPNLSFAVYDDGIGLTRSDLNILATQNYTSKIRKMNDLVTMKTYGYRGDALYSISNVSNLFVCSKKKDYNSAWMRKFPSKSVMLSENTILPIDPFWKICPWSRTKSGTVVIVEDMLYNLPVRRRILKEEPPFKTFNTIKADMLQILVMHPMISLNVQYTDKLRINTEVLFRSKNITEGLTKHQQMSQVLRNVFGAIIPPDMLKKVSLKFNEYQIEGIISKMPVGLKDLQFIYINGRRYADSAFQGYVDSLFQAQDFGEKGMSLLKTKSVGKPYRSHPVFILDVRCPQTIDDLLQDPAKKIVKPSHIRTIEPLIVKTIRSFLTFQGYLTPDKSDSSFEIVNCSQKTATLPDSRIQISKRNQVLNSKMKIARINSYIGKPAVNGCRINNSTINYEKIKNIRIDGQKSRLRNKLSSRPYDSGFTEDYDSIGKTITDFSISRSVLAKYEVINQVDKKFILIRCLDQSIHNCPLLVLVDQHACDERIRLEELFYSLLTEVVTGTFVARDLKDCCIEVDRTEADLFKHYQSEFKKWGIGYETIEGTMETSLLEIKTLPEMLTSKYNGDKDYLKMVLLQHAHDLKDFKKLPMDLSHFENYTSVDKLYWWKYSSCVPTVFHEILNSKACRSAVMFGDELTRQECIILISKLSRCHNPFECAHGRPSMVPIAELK

T2: Msh4-TurboID (S. cerevisiae) (UniProt P40965)
T2 sequence: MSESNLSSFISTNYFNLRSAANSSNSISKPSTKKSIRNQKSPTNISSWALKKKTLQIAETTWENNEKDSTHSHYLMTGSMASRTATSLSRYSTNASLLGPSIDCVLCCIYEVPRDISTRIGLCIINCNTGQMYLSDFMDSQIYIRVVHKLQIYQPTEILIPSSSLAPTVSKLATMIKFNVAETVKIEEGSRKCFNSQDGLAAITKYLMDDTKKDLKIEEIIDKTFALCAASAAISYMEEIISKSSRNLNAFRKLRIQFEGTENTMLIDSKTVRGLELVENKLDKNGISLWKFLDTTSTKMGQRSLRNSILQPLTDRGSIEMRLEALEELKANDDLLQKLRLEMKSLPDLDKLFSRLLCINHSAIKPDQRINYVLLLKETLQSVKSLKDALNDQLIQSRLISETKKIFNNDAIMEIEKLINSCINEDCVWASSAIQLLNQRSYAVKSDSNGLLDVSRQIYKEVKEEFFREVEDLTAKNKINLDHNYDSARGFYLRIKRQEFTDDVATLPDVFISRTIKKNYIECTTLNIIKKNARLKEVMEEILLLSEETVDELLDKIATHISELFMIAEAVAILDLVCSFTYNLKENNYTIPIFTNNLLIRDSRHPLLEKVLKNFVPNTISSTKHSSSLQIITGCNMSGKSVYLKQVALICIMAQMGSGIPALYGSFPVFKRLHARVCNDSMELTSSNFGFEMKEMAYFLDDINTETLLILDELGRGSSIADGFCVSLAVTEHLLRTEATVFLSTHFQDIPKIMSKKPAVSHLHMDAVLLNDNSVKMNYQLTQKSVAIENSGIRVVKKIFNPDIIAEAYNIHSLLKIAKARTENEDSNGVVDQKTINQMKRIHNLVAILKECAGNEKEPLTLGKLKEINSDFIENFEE

T3: Spo16-TurboID (S. cerevisiae) (UniProt P17122)
T3 sequence: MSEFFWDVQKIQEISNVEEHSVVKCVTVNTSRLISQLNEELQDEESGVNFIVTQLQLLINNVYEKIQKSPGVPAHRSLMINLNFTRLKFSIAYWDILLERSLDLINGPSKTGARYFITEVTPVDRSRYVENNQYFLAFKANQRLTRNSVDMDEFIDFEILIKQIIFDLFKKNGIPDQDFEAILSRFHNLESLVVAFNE

T4: Zip2-TurboID (S. cerevisiae) (UniProt P53061)
T4 sequence: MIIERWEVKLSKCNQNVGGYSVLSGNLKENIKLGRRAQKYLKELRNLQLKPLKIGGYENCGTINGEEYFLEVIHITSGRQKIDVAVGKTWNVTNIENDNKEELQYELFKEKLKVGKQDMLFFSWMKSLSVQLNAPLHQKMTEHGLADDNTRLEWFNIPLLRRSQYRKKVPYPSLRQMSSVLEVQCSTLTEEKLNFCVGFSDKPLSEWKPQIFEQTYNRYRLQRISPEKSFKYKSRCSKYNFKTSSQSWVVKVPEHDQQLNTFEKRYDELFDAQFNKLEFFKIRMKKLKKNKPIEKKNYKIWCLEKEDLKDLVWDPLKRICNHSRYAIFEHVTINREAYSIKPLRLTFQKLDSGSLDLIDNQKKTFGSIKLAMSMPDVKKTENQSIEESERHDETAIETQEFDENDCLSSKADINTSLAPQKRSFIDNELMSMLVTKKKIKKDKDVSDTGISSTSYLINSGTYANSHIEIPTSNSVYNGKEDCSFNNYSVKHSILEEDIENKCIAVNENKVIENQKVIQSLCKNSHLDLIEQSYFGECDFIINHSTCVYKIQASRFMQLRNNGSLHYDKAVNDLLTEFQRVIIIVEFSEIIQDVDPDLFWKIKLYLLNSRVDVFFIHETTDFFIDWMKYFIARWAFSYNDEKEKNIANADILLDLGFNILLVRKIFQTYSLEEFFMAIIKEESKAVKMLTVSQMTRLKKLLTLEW

T5: Zip3iTurboID (S. cerevisiae) (UniProt Q06032)
T5 sequence: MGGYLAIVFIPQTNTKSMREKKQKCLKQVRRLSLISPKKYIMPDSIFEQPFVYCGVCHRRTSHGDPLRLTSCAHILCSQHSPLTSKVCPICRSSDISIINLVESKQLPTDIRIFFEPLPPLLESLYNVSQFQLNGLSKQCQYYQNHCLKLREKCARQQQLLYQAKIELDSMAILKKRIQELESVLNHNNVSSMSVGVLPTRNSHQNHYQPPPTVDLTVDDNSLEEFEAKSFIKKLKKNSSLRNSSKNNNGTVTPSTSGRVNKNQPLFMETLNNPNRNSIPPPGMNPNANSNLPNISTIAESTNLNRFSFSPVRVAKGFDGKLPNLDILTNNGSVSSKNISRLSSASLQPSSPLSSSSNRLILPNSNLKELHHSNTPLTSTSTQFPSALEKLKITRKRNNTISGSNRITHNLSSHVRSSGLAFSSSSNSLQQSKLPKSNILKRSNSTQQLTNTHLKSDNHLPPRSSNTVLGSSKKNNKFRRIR


Assays:
Test in all cases: proximity labelling
[1] = target: Mer3-TurboID (S. cerevisiae) (UniProt P51979)
[2] = target: T1, Mlh3-TurboID (S. cerevisiae)
[3] = target: T2, Msh4-TurboID (S. cerevisiae)
[4] = target: T3, Spo16-TurboID (S. cerevisiae)
[5] = target: T4, Zip2-TurboID (S. cerevisiae)
[6] = target: T5, Zip3iTurboID (S. cerevisiae)

| Binder | binding [1] | binding [2] | binding [3] | binding [4] | binding [5] | binding [6] |
| --- | --- | --- | --- | --- | --- | --- |
| Zip1 (protein, UniProt P31111 1-875) MSNFFRDSSMGFKPRPNIFAKLRVRDVDSDSSANTVVENSSNCLDVGSSIEGDDTFKKPHKTSTEQELITSMSLSQRNHGYSDDMEIGSPKKTTSTDQYNRILKNDVAAIENDTDEDFEITEVREVSEGVAKETKESHGDPNDSETTLKDSKMHEYTMTNGKAPLHTSINNSSTSSNDVLLEAFTNTQRICSNLKQELQKQQQDNAKLKVRLQSYASNSDKINEKVGKYKSCLETLQERIATLTSHKNNQETKLKDLRQNHQLYQRRISGFKTSIENLNKTINDLGKNKKEADAELMKKGKEIEYLKRELDDCSGQLSEEKIKNSSLIQEMGKNREEMIKSIENFFSEDKAHHLLQFNKFEERVHDLFEKKLQKHFDVAKDTLNVGLRNTTVELSSNTETMLKQQYEDIKENLEQKMSSSKDEMAKTINELSVTQKGLIMGVQEELLTSSGNIQTALVSEMNNTRQELLDDASQTAKNYASLENLVKAYKAEIVQSNEYEERIKHLESERSTLSSQKNQIISSLGTKEAQYEDLVKKLEAKNIEISQISGKEQSLTEKNENLSNELKKVQDQLEKLNNLNITTKSNYENKISSQNEIVKALVSENDTLKQRIQQLVEIKENEQKDHTTKLEAFQKNNEQLQKLNVEVVQLKAHELELEEQNRHLKNCLEKKETGVEESLSDVKTLKQQVIVLKSEKQDITAEKLELQDNLESLEEVTKNLQQKVQSQKRELEQKIKELEEIKNHKRNEPSKKGTQNFTKPSDSPKKNATTSNLFPNNSAAIHSPMKKCPKVDHISKSRINSSKETSKFNDEFDLSSSSNDDLELTNPSPIQIKPVRGKIKKGSNCMKPPISSRKKLLLVEDEDQSLKISKKRRRK | binds | no binding | binds | binds | binds | binds |
| Pif1 helicase (protein, UniProt P07271 46-859) RSNNFIQAQLKHPSILSKEDLDLLSDSDDWEEPDCIQLETEKQEKKIITDIHKEDPVDKKPMRDKNVMNFINKDSPLSWNDMFKPSIIQPPQLISENSFDQSSQKKSRSTGFKNPLRPALKKESSFDELQNNSISQERSLEMINENEKKKMQFGEKIAVLTQRPSFTELQNDQDDSNLNPHNGVKVKIPICLSKEQESIIKLAENGHNIFYTGSAGTGKSILLREMIKVLKGIYGRENVAVTASTGLAACNIGGITIHSFAGIGLGKGDADKLYKKVRRSRKHLRRWENIGALVVDEISMLDAELLDKLDFIARKIRKNHQPFGGIQLIFCGDFFQLPPVSKDPNRPTKFAFESKAWKEGVKMTIMLQKVFRQRGDVKFIDMLNRMRLGNIDDETEREFKKLSRPLPDDEIIPAELYSTRMEVERANNSRLSKLPGQVHIFNAIDGGALEDEELKERLLQNFLAPKELHLKVGAQVMMVKNLDATLVNGSLGKVIEFMDPETYFCYEALTNDPSMPPEKLETWAENPSKLKAAMEREQSDGEESAVASRKSSVKEGFAKSDIGEPVSPLDSSVFDFMKRVKTDDEVVLENIKRKEQLMQTIHQNSAGKRRLPLVRFKASDMSTRMVLVEPEDWAIEDENEKPLVSRVQLPLMLAWSLSIHKSQGQTLPKVKVDLRRVFEKGQAYVALSRAVSREGLQVLNFDRTRIKAHQKVIDFYLTLSSAESAYKQLEADEQVKKRKLDYAPGPKYKAKSKSKSNSPAPISATTQSNNGIAAMLQRHSRKRFQLKKESNSNQVHSLVSDEPRGQDTEDHILE | binds | no binding | binds | binds | binds | binds |
| Rim4 (protein, UniProt P38741 1-713) MKTEISTADSLRDPPSNGLKADSELVIREDIDQFLPSEVSSLGSDHQNDGEDSDTDSDNFLQDPEDDVDEESTGRGTVTTTSTSTESRGRPSSCIFVASLAAALSDDELCLSVTENFKKYGDLARVKVLRDNANRPYAFVQYNNDHDAKHALIRAQGTLLNGRRLRCEPAKVNRTLYLKNQQSIDFNEISQICEKFGGLEQIVPDRTDNQYTRRYTYPISSANSWFVQFVYRDDAIRAYANLRTDPNWIIEWAQNINVPKNYNLLHKSKFKSSKYHQNNGIINNDGSNNNDNNNSNNNNREDSRRNGDVIEEECGHVHGSDSEEKLTSDGIYDDEDKDSEITIDKRSIFVGQLDKETTREELNRRFSTHGKIQDINLIFKPTNIFAFIKYETEEAAAAALESENHAIFLNKTMHVQYKEVGGRHNRKFSGKNGGSNFNHHQFFSTRSGKTFTGPELNLAPPPINMYRKMSGGSQQESETMMPYMPMGPMPMGPPPPNAASLSDFDMFPPSYSTFMKGMMPLRRKSMPNSWSSPSSKSVNSENESVNGGDENSELPSEIPESSGRYNAANSFTTYNNSSAGNSNNNNNNNNSNSNKSQYKKRYARRSSYGYNEVPPKPYYFQPYYYHPMQYHMGPMGPLHPSQGSAGNHHPYMMVYPMSPPPPSGLDGSMIPPPINVSQSHAANHGSTHVHANEFISNDTGDINEDNKAYSLDY | binds | binds | binds | binds | binds | binds |

Results are given in words; binding and its absence hold for the method and conditions named. Binding seen in cells or lysates may run through a third protein. These calls come from enrichment with a bait or labelling near it, and not all partners need be listed. For part of these data: A no says only that the protein was not detected with the bait.
